The results in this text go back to patent US20030235860A1, “Interactions between AR, ER, TR2, and TR4” (priority 1999, published 2003).

Amino acid sequences for entries named in this document (tags omitted). A change or cut given only in a name is not applied to a line headed by its entry.
UniProt P03372: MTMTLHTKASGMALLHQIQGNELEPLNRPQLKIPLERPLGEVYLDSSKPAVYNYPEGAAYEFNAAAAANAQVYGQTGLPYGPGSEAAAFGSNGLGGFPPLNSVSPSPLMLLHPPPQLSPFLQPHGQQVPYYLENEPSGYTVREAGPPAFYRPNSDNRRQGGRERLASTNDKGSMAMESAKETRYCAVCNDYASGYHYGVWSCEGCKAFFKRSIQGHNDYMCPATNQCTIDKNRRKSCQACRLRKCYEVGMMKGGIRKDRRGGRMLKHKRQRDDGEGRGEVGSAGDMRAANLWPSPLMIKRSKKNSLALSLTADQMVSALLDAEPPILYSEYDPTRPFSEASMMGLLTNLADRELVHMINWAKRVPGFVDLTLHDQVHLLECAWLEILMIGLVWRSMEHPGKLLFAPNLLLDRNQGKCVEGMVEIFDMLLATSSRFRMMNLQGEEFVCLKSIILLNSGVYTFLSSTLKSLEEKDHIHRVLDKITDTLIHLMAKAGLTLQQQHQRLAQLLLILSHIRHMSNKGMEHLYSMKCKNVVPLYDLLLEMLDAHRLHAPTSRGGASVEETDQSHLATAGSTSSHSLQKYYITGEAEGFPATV

For test [1], the target named is estrogen receptor (ER), full-length (human) (UniProt P03372). The experiment in a line: GST pull-down, GST fusion on beads, [35S]-ER.
Test [2] shares this target. The experiment in a line: GST pull-down, GST-TR2 fragment on beads, [35S]-ER.

Results are given in words; binding and its absence hold for the method and conditions named. Binding seen in cells or lysates may run through a third protein. Some entries that bind do so weakly or less than the wild type. Sequences can lack the tags named with a protein.

B1: GST-TR4-LBD (aa 224-615 of human TR4) (protein, not shown: a dimerising Fc or GST; small tags and cut ends)
chain: AASTEKIYIRKDLRSPLIATPTFVADKDGARQTGLLDPGMLVNIQQPLIREDGTVLLATDSKAETSQGALGTLANVVTSLANLSESLNNGDTSEIQPEDQSASEITRAFDTLAKALNTTDSSSSPSLADGIDTSGGGSIHVISRDQSTPIIEVEGPLLSDTHVTFKLTMPSPMPEYLNVHYICESASRLLFLSMHRARSIPAFQGLGQDCNTSLVRACWNELFTLGLAQCAQVMSLSTILAAIVNHLQNSIQEDKLSGDRIKQVMEHIWKLQEFCNSMANWDIDGYEYAYLKAIVLFSPDHPGLTSTSQIEKFQEKAQMELQDYVQKTYSEDTYRLARILVRLPALRLMSSNITEELFFTGLIGNVSIDSIIPYILKMETAEYNGQITGVSL
With B1, in test [1], the binding result is given as “binds”.

B2: GST-TR2-#2 (DBD, aa 88-196 of TR2) (protein, not shown: a dimerising Fc or GST; large carriers; small tags and cut ends)
chain: DLSAQHLQLLTDNSPDQGPNKVFDLCVVCGDKASGRHYGAVTCEGCKGFFKRSIRKNLVYSCRGSKDCIINKHHRNRCQYCRLQRCIAFGMKQDSVQCERKPIEVSREK
On to B2, for which, in test [2], the binding result was “binds”.
